These are yes or no findings as the source states them, for the method shown. In cells and extracts the contact can be indirect. Some results given as binding are weak or reduced against the parent protein; the word gives no strength.
Experiments:
[1] = target: BAX (mouse (endogenous in superior mesenteric artery tissue)) (UniProt Q07813); experiment: co-IP; BAX antibody on Protein A/G magnetic beads; cytoplasmic fraction of vascular tissue of WT or Drp1 KO mice after 4 h ischemia; Drp1 detected by blot
[2] = target: BAX (mouse (endogenous in superior mesenteric artery tissue)) (UniProt Q07813); experiment: co-IP; BAX antibody on Protein A/G magnetic beads; mitochondrial fraction of vascular tissue of WT or Drp1 KO mice after 4 h ischemia; Drp1 detected by blot

Protein sequences, listed by entry. Tags and fused reporters are not part of them.
UniProt Q07813: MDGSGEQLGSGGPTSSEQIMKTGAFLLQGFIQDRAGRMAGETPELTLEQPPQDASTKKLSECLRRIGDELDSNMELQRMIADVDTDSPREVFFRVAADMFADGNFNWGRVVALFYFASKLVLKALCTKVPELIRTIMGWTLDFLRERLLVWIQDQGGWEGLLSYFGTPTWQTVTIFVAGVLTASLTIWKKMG
UniProt Q8K1M6: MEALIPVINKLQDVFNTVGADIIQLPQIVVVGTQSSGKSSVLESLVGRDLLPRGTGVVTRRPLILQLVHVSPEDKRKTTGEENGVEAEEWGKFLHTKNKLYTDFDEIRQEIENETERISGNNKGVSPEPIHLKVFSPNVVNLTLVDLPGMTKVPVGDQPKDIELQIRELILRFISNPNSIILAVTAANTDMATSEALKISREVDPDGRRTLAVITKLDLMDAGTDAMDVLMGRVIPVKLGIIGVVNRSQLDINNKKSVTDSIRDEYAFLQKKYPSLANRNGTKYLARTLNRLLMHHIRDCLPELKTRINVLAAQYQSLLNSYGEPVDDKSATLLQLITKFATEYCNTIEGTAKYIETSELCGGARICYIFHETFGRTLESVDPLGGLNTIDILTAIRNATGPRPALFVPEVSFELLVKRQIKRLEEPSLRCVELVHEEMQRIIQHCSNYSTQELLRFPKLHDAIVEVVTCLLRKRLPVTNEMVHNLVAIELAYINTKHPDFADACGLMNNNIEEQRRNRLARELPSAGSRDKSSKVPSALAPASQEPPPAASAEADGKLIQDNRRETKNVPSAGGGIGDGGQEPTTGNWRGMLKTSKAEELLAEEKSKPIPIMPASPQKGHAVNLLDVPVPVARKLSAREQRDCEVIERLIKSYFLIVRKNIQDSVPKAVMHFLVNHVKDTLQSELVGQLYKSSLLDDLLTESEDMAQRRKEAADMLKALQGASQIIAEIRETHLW

- binding [2]: binds
Substance: dynamin-related protein 1 (Drp1) (from UniProt Q8K1M6 1-736)
- binding [1]: no binding (condition: in the cytoplasmic fraction)

Reference: paper PMC7170874
